Measurements taken from paper doi:10.1101/2023.03.27.534109.
No constants are given. Whether binding was seen depends on the method and setting. Some results given as binding are weak or reduced against the parent protein; the word gives no strength.

Sequences of proteins named here, by UniProt entry; tags and fusion partners are left off.
UniProt Q13568: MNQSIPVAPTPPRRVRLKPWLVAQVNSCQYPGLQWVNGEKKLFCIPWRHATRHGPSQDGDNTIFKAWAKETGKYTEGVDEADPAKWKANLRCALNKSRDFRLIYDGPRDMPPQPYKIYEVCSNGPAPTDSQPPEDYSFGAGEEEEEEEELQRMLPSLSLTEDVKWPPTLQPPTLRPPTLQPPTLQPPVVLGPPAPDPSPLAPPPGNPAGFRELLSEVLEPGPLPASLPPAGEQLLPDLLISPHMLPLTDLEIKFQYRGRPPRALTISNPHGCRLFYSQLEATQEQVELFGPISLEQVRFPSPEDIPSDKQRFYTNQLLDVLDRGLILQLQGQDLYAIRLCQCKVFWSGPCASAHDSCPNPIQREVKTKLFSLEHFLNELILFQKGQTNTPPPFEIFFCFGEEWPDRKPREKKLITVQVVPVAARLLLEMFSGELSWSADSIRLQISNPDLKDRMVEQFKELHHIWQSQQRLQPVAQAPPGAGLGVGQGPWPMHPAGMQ

Biological target: endogenous IRF5 of THP1 cells stimulated with a TLR7/8 agonist (human (endogenous in THP1)) (UniProt Q13568)
Experiment: native gel or EMSA

binding: binds
Substance: endogenous IRF5 of THP1 cells stimulated with a TLR7/8 agonist (from UniProt Q13568 1-498)
